These are yes or no findings as the source states them, for the method shown. Binding seen in cells or lysates may run through a third protein. Some entries that bind do so weakly or less than the wild type.
Biological target: β-catenin (human (endogenous in MHCC-97L)) (UniProt P35222)
Experiment: co-IP; MHCC-97L cell lysate, protein G-agarose; IgG as negative control; which protein was precipitated is not given

Sequences of proteins named here, by UniProt entry; tags and fusion partners are left off. A change or cut given only in a name is not applied to a line headed by its entry.
UniProt P35222: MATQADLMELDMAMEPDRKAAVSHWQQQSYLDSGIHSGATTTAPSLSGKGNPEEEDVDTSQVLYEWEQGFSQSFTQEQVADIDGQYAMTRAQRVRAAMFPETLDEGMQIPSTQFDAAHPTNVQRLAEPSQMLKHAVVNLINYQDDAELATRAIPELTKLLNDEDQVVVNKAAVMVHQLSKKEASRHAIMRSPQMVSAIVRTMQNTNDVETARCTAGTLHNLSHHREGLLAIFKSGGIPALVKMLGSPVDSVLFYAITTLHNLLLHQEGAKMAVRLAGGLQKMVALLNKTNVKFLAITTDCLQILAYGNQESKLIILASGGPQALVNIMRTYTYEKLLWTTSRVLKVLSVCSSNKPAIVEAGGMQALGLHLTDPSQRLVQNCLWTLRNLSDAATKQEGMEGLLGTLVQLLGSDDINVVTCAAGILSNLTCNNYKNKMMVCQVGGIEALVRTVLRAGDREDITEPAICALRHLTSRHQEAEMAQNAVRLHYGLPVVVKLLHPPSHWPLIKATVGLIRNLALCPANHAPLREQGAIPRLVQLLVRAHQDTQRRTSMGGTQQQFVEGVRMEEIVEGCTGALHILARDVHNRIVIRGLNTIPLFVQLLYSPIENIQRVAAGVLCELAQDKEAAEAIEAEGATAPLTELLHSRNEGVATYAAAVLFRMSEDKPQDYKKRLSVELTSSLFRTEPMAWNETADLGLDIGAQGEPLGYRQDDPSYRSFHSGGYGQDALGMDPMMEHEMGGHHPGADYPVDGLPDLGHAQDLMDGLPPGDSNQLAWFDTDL
UniProt P61081: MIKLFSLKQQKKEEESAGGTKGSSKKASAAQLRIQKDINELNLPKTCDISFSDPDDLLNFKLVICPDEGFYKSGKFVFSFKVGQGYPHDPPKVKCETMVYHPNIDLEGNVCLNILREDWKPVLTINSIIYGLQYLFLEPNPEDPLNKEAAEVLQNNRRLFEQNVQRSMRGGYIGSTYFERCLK

binding: binds
Substance: ubiquitin-conjugating enzyme E2M (UBE2M) (from UniProt P61081 1-183)

Reference: paper PMC7041726
